Data from the supplement of paper PMC6411743.
± gives the standard deviation of the averaged measurements. Only a part is listed here, and it is no random draw.

The chains behind the UniProt entries cited, without tags or fusion partners. Where a name states a change or a piece, a line headed by the entry shows the natural chain unless it says otherwise.
UniProt Q6NXT6: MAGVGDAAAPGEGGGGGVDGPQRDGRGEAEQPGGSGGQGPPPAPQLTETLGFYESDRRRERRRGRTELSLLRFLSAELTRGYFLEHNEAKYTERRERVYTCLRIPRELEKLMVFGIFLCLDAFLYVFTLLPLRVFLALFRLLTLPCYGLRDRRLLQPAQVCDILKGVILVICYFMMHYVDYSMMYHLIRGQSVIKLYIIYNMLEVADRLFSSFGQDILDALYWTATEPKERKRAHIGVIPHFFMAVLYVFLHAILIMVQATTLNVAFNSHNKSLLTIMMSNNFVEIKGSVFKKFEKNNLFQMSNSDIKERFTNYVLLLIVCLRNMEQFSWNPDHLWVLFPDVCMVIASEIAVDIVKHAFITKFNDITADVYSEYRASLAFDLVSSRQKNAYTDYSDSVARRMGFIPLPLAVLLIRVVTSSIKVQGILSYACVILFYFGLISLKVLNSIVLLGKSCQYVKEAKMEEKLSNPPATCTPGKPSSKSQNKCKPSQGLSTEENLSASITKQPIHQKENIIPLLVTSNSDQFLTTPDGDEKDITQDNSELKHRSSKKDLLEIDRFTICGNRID
UniProt Q6P1Q9: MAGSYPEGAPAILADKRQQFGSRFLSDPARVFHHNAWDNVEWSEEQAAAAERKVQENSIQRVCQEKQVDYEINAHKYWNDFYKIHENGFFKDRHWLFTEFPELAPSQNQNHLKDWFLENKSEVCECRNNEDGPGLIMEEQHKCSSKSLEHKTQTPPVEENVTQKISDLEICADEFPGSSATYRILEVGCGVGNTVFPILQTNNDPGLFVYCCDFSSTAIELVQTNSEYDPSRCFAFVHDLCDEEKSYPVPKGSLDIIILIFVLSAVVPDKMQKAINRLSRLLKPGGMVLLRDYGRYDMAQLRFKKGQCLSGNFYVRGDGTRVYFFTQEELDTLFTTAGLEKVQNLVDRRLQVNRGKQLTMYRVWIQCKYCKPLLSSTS
UniProt Q6NSJ2: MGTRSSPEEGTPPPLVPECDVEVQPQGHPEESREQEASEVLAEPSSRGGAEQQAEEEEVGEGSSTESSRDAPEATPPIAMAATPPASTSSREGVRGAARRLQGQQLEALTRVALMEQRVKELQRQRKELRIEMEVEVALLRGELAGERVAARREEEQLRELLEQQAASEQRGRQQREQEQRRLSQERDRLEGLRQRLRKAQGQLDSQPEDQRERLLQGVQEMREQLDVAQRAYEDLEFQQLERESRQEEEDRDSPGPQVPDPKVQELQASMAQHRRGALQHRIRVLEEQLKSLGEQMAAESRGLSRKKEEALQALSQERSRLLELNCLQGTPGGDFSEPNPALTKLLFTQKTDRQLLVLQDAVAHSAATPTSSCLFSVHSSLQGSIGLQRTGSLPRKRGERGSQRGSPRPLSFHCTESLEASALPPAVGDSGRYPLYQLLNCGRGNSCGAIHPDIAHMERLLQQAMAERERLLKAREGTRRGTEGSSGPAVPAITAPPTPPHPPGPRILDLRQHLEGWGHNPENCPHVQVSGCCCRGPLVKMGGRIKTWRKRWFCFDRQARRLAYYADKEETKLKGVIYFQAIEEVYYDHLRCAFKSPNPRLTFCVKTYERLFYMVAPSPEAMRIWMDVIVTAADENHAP
UniProt Q6PCD5: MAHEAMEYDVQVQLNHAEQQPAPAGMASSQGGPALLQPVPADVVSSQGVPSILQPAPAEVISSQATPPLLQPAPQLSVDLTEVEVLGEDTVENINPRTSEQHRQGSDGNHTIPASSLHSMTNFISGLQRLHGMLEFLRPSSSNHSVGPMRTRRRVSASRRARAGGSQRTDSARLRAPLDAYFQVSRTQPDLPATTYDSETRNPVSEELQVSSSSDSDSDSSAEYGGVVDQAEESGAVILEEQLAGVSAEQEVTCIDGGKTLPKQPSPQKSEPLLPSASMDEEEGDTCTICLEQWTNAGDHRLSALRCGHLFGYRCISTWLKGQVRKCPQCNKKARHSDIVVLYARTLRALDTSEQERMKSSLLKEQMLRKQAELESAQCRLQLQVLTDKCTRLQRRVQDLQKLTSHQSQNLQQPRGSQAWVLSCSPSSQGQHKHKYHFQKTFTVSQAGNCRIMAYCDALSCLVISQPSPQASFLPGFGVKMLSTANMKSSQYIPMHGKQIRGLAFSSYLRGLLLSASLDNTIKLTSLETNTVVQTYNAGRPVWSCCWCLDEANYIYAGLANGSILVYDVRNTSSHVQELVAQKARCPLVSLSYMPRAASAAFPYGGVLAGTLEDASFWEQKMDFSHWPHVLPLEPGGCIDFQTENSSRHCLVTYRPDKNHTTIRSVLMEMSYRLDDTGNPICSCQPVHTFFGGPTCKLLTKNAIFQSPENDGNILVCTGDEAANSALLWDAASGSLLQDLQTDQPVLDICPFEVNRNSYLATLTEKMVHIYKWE
UniProt Q6FIF0: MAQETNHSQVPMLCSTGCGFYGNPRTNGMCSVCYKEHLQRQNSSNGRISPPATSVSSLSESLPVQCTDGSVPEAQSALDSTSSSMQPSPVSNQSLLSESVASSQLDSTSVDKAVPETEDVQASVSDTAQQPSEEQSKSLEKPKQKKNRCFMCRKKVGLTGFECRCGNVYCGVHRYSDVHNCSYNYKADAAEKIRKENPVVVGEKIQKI
UniProt Q6ZVK8: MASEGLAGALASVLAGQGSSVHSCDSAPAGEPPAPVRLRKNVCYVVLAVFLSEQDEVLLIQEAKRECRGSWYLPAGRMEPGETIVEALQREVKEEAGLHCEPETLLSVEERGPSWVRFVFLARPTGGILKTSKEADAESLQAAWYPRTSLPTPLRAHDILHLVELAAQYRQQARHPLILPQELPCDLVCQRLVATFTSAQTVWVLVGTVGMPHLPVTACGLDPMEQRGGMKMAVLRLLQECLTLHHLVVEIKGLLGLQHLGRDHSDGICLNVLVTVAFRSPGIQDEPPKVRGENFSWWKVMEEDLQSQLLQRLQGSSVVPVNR
UniProt Q6P4Q7: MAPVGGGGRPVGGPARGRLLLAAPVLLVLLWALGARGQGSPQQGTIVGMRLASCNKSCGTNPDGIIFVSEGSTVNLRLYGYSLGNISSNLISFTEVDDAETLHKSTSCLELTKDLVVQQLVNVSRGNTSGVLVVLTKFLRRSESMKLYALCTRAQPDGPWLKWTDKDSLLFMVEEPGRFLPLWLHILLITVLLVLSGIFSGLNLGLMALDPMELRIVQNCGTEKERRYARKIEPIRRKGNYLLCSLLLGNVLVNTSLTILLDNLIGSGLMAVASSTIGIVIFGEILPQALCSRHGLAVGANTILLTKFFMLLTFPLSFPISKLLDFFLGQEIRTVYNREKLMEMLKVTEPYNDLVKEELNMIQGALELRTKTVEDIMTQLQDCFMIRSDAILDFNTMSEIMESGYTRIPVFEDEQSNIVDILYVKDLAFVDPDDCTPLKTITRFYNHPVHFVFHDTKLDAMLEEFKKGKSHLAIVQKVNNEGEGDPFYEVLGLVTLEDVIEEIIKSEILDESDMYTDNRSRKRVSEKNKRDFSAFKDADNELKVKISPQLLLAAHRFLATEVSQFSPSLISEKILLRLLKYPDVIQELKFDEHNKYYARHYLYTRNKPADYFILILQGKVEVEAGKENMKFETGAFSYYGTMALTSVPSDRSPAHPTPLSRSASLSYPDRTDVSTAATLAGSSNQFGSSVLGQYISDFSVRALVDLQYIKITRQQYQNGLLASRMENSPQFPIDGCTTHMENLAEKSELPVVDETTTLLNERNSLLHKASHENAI
UniProt Q68D91: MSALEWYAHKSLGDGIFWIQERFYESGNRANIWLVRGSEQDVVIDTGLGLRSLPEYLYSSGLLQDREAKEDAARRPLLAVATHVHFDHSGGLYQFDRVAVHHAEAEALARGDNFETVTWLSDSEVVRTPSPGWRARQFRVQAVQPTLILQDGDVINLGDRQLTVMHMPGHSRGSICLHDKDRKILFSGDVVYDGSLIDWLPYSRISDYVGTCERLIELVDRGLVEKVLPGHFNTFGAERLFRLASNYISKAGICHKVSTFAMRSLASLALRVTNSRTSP
UniProt Q6ZMI0: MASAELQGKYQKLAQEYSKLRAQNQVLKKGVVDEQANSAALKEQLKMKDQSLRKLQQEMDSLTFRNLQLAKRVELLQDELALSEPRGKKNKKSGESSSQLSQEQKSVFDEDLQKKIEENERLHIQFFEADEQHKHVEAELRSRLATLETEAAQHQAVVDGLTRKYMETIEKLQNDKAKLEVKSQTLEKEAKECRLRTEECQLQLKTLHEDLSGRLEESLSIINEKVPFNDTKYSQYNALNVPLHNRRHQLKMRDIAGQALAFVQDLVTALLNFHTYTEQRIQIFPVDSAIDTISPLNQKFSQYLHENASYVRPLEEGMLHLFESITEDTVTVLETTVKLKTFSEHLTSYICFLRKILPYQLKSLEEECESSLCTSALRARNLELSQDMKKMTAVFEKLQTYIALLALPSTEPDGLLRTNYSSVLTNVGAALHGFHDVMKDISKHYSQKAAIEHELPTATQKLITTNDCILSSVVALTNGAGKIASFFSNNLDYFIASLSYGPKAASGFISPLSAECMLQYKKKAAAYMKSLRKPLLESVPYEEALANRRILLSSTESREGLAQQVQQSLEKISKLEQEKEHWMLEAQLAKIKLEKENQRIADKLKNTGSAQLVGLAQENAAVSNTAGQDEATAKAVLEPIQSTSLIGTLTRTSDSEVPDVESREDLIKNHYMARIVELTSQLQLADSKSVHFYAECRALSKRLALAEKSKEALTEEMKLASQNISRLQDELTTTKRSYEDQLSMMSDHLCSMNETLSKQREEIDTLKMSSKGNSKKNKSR
UniProt Q5VZE5: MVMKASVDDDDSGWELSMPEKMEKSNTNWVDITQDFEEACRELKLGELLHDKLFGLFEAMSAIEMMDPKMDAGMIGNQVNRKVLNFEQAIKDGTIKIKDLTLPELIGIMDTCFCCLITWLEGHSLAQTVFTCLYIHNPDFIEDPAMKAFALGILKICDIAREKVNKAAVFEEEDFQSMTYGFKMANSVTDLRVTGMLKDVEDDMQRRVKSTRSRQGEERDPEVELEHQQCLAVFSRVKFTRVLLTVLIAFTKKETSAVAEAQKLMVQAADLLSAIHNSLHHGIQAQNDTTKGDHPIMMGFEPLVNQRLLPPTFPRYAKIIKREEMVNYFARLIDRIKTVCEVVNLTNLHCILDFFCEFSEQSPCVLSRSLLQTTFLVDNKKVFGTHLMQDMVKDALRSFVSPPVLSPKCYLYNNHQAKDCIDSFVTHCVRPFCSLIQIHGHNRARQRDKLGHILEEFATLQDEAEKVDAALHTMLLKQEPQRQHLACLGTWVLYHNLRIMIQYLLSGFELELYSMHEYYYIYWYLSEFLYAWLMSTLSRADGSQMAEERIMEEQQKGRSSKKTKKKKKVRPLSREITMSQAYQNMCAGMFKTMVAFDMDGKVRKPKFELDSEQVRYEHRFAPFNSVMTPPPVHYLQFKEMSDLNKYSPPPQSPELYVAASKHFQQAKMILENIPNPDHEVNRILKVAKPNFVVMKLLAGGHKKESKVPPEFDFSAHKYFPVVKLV
UniProt Q7Z5G4, whole entry: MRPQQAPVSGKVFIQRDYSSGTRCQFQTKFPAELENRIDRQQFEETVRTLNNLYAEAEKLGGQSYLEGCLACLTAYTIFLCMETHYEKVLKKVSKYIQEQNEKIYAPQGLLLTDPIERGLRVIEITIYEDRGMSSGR
UniProt Q5VVJ2: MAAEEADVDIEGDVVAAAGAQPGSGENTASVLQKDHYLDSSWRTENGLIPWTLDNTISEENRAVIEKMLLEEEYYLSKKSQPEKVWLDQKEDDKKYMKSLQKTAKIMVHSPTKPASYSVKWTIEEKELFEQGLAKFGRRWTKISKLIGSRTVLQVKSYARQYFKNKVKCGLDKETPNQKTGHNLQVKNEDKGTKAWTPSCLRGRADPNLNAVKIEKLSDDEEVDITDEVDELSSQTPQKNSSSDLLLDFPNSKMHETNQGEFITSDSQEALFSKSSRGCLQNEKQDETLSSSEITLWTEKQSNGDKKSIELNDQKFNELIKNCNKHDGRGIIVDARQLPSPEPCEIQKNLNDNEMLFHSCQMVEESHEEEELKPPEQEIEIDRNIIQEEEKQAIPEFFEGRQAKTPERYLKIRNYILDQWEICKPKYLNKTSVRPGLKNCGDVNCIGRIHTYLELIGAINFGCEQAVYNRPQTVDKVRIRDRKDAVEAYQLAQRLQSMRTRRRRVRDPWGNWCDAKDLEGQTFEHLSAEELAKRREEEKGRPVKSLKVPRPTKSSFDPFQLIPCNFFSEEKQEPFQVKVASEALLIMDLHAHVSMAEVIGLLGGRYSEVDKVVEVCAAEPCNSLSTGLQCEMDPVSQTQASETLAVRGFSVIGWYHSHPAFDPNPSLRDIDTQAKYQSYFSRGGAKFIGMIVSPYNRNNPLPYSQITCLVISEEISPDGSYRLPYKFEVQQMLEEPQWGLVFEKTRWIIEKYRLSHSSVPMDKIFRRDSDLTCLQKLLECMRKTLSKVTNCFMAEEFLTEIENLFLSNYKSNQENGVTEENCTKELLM

Compound: Nc1ncnc2c1ncn2[C@@H]1O[C@H](COP(=O)(O)OP(=O)(O)NP(=O)(O)O)[C@@H](O)[C@H]1O [adenylyl imidodiphosphate]
Experiment: NP40-soluble protein abundance relative to vehicle (solubility fold change) (ratio); higher = more soluble protein in presence of AMP-PNP
In short: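 Values are fold changes against the detergent-processed vehicle, based on vsn-normalised intensities. Jurkat crude lysate was treated at eight concentrations from 0.1 to 10 mM (10 min at room temperature, then 3 min at 37 °C), solubilised with 0.8% NP40 and benzonase, ultracentrifuged and analysed by TMT-labelled LC-MS/MS over three independent experiments.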

Target	NP40-soluble protein abundance (concentration: 1mM)	NP40-soluble protein abundance (concentration: 2mM)	NP40-soluble protein abundance (concentration: 4mM)	NP40-soluble protein abundance (concentration: 6mM)	NP40-soluble protein abundance (concentration: 8mM)	NP40-soluble protein abundance (concentration: 10mM)
UniProt Q7KZ85 and related entries	0.985 ± 0.03	0.931 ± 0.048	0.9691 ± 0.0085	0.9679 ± 0.0051	0.977 ± 0.013	0.971 ± 0.0087
UniProt Q6NXT6 and related entries	1 ± 0.024	1.02 ± 0.071	1 ± 0.023	0.974 ± 0.029	0.915 ± 0.027	0.979 ± 0.023
UniProt Q6R327 and related entries	1.01 ± 0.018	0.979 ± 0.023	1.01 ± 0.027	0.981 ± 0.029	0.99 ± 0.055	0.968 ± 0.049
UniProt Q7L592	0.98 ± 0.025	0.951 ± 0.018	0.996 ± 0.034	1.007 ± 0.0097	1 ± 0.03	1.02 ± 0.014
UniProt Q7KYR7 and related entries	0.978 ± 0.025	0.972 ± 0.015	0.959 ± 0.015	0.986 ± 0.039	0.971 ± 0.022	0.985 ± 0.049
LARP1 (UniProt Q6PKG0)	1.02 ± 0.069	1.06 ± 0.034	0.998 ± 0.069	0.971 ± 0.058	0.966 ± 0.063	1.01 ± 0.062
METTL2B (UniProt Q6P1Q9)	1.02 ± 0.017	1.01 ± 0.026	1.01 ± 0.053	0.979 ± 0.015	0.981 ± 0.005	1 ± 0.033
PACS1 (UniProt Q6VY07)	1.02 ± 0.03	1.01 ± 0.03	1.023 ± 0.0059	0.984 ± 0.016	1.02 ± 0.021	1.03 ± 0.023
UniProt Q6UB98 and related entries	0.991 ± 0.053	0.986 ± 0.03	1.15 ± 0.17	1.06 ± 0.039	1.08 ± 0.12	1.03 ± 0.026
PHLDB3 (UniProt Q6NSJ2)	1.03 ± 0.03	1.03 ± 0.035	1.03 ± 0.03	1.01 ± 0.031	0.988 ± 0.014	0.995 ± 0.013
UniProt Q6P1J9	0.9892 ± 0.0083	0.957 ± 0.039	0.988 ± 0.036	0.985 ± 0.024	0.986 ± 0.025	0.955 ± 0.025
UniProt Q5VT52 and related entries	1.02 ± 0.022	1.08 ± 0.069	1.047 ± 0.0076	1.08 ± 0.025	1.05 ± 0.022	1.11 ± 0.041
RFWD3 (UniProt Q6PCD5)	0.995 ± 0.021	0.969 ± 0.015	0.957 ± 0.022	0.992 ± 0.011	0.9855 ± 0.0065	0.968 ± 0.022
UniProt Q6UXH1 and related entries	1.01 ± 0.032	1.07 ± 0.056	1.01 ± 0.029	0.964 ± 0.019	0.956 ± 0.045	1.01 ± 0.029
UniProt Q6FIF0 and related entries	0.9913 ± 0.0097	1.04 ± 0.086	1.01 ± 0.033	1.01 ± 0.011	1.02 ± 0.024	1.01 ± 0.029
NUDT18 (UniProt Q6ZVK8)	0.968 ± 0.017	0.966 ± 0.033	0.96 ± 0.014	0.986 ± 0.025	0.999 ± 0.037	0.98 ± 0.022
CNNM4 (UniProt Q6P4Q7)	0.967 ± 0.012	1 ± 0.017	0.99 ± 0.018	0.972 ± 0.023	0.9841 ± 0.0088	1.01 ± 0.024
MBLAC2 (UniProt Q68D91)	0.981 ± 0.042	0.913 ± 0.065	0.973 ± 0.033	0.943 ± 0.053	0.988 ± 0.029	0.942 ± 0.049
UniProt Q6ZMI0	1.04 ± 0.014	1.09 ± 0.068	1.03 ± 0.018	1.01 ± 0.013	0.978 ± 0.015	1.01 ± 0.028
UniProt Q5VZE5	1.08 ± 0.069	1.05 ± 0.033	1.07 ± 0.027	1.07 ± 0.018	1.06 ± 0.032	1.05 ± 0.03
UniProt Q5VZI3 and related entries	0.981 ± 0.025	1 ± 0.018	1 ± 0.015	1.02 ± 0.013	1.01 ± 0.032	0.98 ± 0.022
UniProt Q7Z5G4 and related entries	0.986 ± 0.027	0.999 ± 0.024	0.994 ± 0.03	0.995 ± 0.021	1.02 ± 0.026	0.971 ± 0.051
CTR9 (UniProt Q6PD62)	0.977 ± 0.029	0.912 ± 0.074	0.976 ± 0.018	0.9708 ± 0.0065	0.977 ± 0.028	0.958 ± 0.035
UniProt Q7Z460 and related entries	1.02 ± 0.013	1.07 ± 0.036	1.05 ± 0.025	1.02 ± 0.026	1.01 ± 0.018	1.06 ± 0.03
UniProt Q7L099-2|Q7L099-3|Q7L099-4	1.03 ± 0.029	1.05 ± 0.064	0.9971 ± 0.0018	0.976 ± 0.017	0.919 ± 0.027	0.965 ± 0.037
MYSM1 (UniProt Q5VVJ2)	0.978 ± 0.045	0.963 ± 0.037	0.968 ± 0.038	0.957 ± 0.04	0.951 ± 0.018	0.94 ± 0.072

Part of the list above in another layout:
Target,NP40-soluble protein abundance (concentration: 1mM),NP40-soluble protein abundance (concentration: 2mM),NP40-soluble protein abundance (concentration: 4mM),NP40-soluble protein abundance (concentration: 6mM),NP40-soluble protein abundance (concentration: 8mM),NP40-soluble protein abundance (concentration: 10mM)
UniProt Q7KYR7 and related entries,0.978 ± 0.025,0.972 ± 0.015,0.959 ± 0.015,0.986 ± 0.039,0.971 ± 0.022,0.985 ± 0.049
PACS1 (UniProt Q6VY07),1.02 ± 0.03,1.01 ± 0.03,1.023 ± 0.0059,0.984 ± 0.016,1.02 ± 0.021,1.03 ± 0.023
UniProt Q5VZE5,1.08 ± 0.069,1.05 ± 0.033,1.07 ± 0.027,1.07 ± 0.018,1.06 ± 0.032,1.05 ± 0.03
UniProt Q7Z5G4 and related entries,0.986 ± 0.027,0.999 ± 0.024,0.994 ± 0.03,0.995 ± 0.021,1.02 ± 0.026,0.971 ± 0.051
CTR9 (UniProt Q6PD62),0.977 ± 0.029,0.912 ± 0.074,0.976 ± 0.018,0.9708 ± 0.0065,0.977 ± 0.028,0.958 ± 0.035
